Our source for the activity change, negative = inhibition and Potency values is PubChem BioAssay AID1671190 (National Center for Advancing Translational Sciences (NCATS), 2021).

Sequences of proteins named here, by UniProt entry; tags and fusion partners are left off.
UniProt P18054, whole entry, looked up: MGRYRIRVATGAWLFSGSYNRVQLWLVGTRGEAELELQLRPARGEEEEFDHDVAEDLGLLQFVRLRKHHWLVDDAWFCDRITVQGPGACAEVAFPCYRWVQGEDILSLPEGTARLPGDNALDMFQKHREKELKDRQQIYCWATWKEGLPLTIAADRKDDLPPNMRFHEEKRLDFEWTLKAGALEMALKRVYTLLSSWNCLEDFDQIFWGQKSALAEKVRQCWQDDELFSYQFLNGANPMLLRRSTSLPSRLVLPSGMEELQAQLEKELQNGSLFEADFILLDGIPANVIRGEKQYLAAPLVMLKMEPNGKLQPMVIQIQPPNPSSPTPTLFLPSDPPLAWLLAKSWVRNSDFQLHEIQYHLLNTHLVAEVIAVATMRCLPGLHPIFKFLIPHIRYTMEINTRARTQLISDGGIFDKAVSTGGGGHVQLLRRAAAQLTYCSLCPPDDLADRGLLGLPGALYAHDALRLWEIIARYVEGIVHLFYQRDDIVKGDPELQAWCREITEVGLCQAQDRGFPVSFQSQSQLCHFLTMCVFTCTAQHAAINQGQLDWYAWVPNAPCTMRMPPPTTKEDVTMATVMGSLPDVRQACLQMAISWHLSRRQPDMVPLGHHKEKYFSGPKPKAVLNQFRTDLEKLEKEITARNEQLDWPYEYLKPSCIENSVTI

Values joined by “and” are separate entries in the source; they are usually repeats but may differ in a detail not shown here. Equal entries are not always repeated. Hit rate of the full screen: of about 580,000 compounds, about 6,100 (1.1%) were called active. Inconclusive results (about 15%) are left out. The call rests on the fitted dose curve; in most records, active means well fitted inhibition curve with a large enough effect; inconclusive means small, poorly fitted or top-dose-only effect, or another doubt; inactive means no such curve, though single readings can be large or run the other way. The entries are a selection whose mix differs from that of the whole data set. The source gives no active or inactive call for entries shown without one.
On the % scale 0 is the no-effect control and ±100 the full control effect; potency means the concentration at half of the fitted maximal effect.

In this test the target is Polyunsaturated fatty acid lipoxygenase ALOX12 (Homo sapiens) (UniProt P18054). The test is described as follows: Primary qHTS assay for inhibitors of human arachidonate 12S-lipoxygenase (ALOX12): Round 2. To be noted: purified 12hLO, xylenol orange hydroperoxide absorbance; activity change, negative = inhibition: at 0.00344 µM (top of the series). The procedure, abridged:
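Purified human 12hLO at 150 nM in 25 mM Hepes, 0.01% Triton X-100, pH 7.0, preincubated 15 min at room temperature with compound. Reaction started with 40 uM arachidonic acid, 30 min at room temperature. Hydroperoxide measured by Fe-xylenol orange, 573/405 nm absorbance ratio.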
Turning to `CN1CCC(=C2c3ccccc3C=Cc3ccccc32)CC1`, the activity change, negative = inhibition worked out at 8.13%.

On to `Cc1ccc(OCC(=O)N/N=C/C=C/c2ccco2)c(Br)c1`, for which the Potency was active: 39.8 µM.

With `O=C(O)Cc1ccc(-c2ccccc2)cc1`, the activity change, negative = inhibition is -22.8%.

On to `Cc1c(Cn2ccnc2)c2ccccc2n1CCC(=O)O`, for which the activity change, negative = inhibition was -31.3%.

As to `CCCCCCCCCCCCCCCCCCOCC(O)CO` (stereo not given), the activity change, negative = inhibition was -10.9%.

Take `C[N+](C)(CCOc1ccccc1)Cc1cccs1`: the activity change, negative = inhibition is -12.1%.

Regarding `Oc1ccccc1`, the activity change, negative = inhibition worked out at 17.4%.

On to `CC(=O)Oc1ccccc1C(=O)Nc1ncc([N+](=O)[O-])s1`, for which the activity change, negative = inhibition is -0.464%.

As for `CCOC(=O)NC1(NC(C)C)Oc2ccccc2O1`, the Potency is active: 25.1 µM.

`CCCOC(=O)c1ccccc1`: the activity change, negative = inhibition was -2.95%.

On to `O=c1c(C(c2c(O)nc3n(c2=O)CCS3)c2cccc3ccccc23)c(O)nc2n1CCS2`, for which the Potency is active: 31.6 µM.

`N#C/C(=C/c1cccc(F)c1)S(=O)(=O)c1ccc(Br)cc1`: the Potency was active: 22.4 µM.

As for `COc1cc(C(=O)OCCCN2CCCN(CCCOC(=O)c3cc(OC)c(OC)c(OC)c3)CC2)cc(OC)c1OC`, the activity change, negative = inhibition was found to be 0.912%.

In the case of `O=C(Nc1ccc(Cl)cc1)Nc1ccc(Cl)c(Cl)c1`, the activity change, negative = inhibition stood at 5.18%.

Regarding `O=C1c2c(O)cccc2Cc2cccc(O)c21`, the activity change, negative = inhibition is -25.5%.

With `CCOc1cc(NC(=S)Nc2ccccc2OC)c(OCC)cc1NC(=O)c1ccccc1C`, the Potency is active: 44.7 µM.

Regarding `NS(=O)(=O)c1cc2c(cc1Cl)NCNS2(=O)=O`, the activity change, negative = inhibition is -12.1%.

Regarding `C[N+]1(C)CCC(=C(c2ccccc2)c2ccccc2)CC1`, the activity change, negative = inhibition is -44.6%.

Consider `NC(N)=N/N=C/c1c(Cl)cccc1Cl`, for which the activity change, negative = inhibition came out at 25.1%.

Turning to `CC(=O)NS(=O)(=O)c1ccc(N=c2ssc3c2-c2ccc(C)cc2NC3(C)C)cc1`, the Potency was active: 15.8 µM.

On to `CCCCCCCCCCCCCCCCCC(=O)OCC(O)CO` (stereo not given), for which the activity change, negative = inhibition came to 5.15%.

For the compound `CC1(C)CC(=O)c2cc(-c3nc(-c4ccc(F)cc4)cs3)c(=O)[nH]c2C1`, the Potency was active: 50.1 µM.

In the case of `NS(=O)(=O)c1ccc(NC(=O)CCC(=O)O)cc1`, the activity change, negative = inhibition was -8.86%.

For the compound `C[N+]12CCC(CC1)C(OC(=O)C(O)(c1ccccc1)c1ccccc1)C2` (stereo not given), the activity change, negative = inhibition is 24.9%.

For the compound `Nc1ncnc2c1ncn2[C@@H]1O[C@H](COP(=O)(O)O)[C@@H](O)[C@H]1O`, the activity change, negative = inhibition is 8.18%.

As for `O=C1Nc2cc(Cl)ccc2Oc2ccccc21`, the activity change, negative = inhibition turned out to be 21.7%.

With `Cc1cc(C(=O)OCC(=O)Nc2sc3c(c2C#N)CCC(C)C3)c2ccccc2n1` (stereo not given), the Potency is active: 39.8 µM.

As to `CO[C@]12C[C@@H](COC(=O)c3cncc(Br)c3)CN(C)[C@@H]1Cc1cn(C)c3cccc2c13`, the activity change, negative = inhibition is -30.1%.

With `COc1cc(C(=O)N2CCOCC2)cc(OC)c1OC`, the activity change, negative = inhibition was -24.4%.

`CC(=O)OCC(=O)[C@@]1(O)CC[C@H]2[C@@H]3CCC4=CC(=O)C=C[C@]4(C)[C@@]3(F)[C@@H](O)C[C@@]21C`: the activity change, negative = inhibition was 28.5%.

`C#C[C@]1(O)CC[C@H]2[C@@H]3[C@H](C)CC4=C(CCC(=O)C4)[C@H]3CC[C@@]21C`: the activity change, negative = inhibition is -26.2%.

For the compound `O=C(O)COc1nn(Cc2ccccc2)c2ccccc12`, the activity change, negative = inhibition stood at 38.8%.

In the case of `CC1(C)C2CC=C(/C=N/NC(=S)NCCc3ccccc3)C1C2` (stereo not given), the Potency was active: 44.7 µM.

As to `CN(C)CCCOc1nn(Cc2ccccc2)c2ccccc12`, the activity change, negative = inhibition was -20.9%.

For `CCc1ccc(-c2cc(C(=O)NCc3ccco3)c3ccccc3n2)s1`, the Potency was active: 17.8 µM and active: 35.5 µM.

Take `O=C(O)c1ccccc1NCCc1ccccc1`: the activity change, negative = inhibition was -16%.

In the case of `CSCC[C@@H]1NC(=O)c2cc(NC(=O)Cn3ccc4ccccc43)ccc2NC1=O`, the Potency is active: 35.5 µM.

With `S=c1[nH]nc(CSCc2ccc(Cl)cc2Cl)n1-c1ccccc1`, the Potency was active: 28.2 µM.

In the case of `CCCCCC(N)=O`, the activity change, negative = inhibition was 42.8%.

Turning to `CCN1CCN(c2ccc(S(=O)(=O)N3CCCCC3)cc2NC(=O)C(C)Oc2ccc(F)cc2)CC1` (stereo not given), the Potency was active: 44.7 µM.

As for `Oc1ccc(O)cc1`, the activity change, negative = inhibition is -29.2%.

On to `COc1cc2nc(N3CCN(C(=O)C4CCCO4)CC3)nc(N)c2cc1OC` (stereo not given), for which the activity change, negative = inhibition came out at 21.8%.

For `O=C(Nc1csnn1)c1csnn1`, the Potency was active: 10 µM.

Take `Cc1ccc(/C(=C\CN2CCCC2)c2ccccn2)cc1`: the activity change, negative = inhibition came out at 26.9%.

For the compound `COc1ccc(C(=O)/C(=C/c2ccco2)c2nc3ccccc3o2)cc1`, the Potency was active: 14.1 µM.

Take `CC(=O)Nc1ccc(NC(=O)c2cc(-c3ccco3)nc3ccccc23)cc1`: the Potency was active: 11.2 µM.

`Cc1ccc(C(C)C)cc2c(C)ccc1-2`: the activity change, negative = inhibition was -13.3%.

On to `CC(C)=CCC/C(C)=C/CC/C(C)=C/CCC(=O)OC/C=C(\C)CCC=C(C)C`, for which the activity change, negative = inhibition is -2.5%.

Consider `CC(=O)Nc1ccc(S(=O)(=O)Nc2ccc([N+](=O)[O-])cc2)cc1`, for which the activity change, negative = inhibition was -10.6%.

Take `Cc1ccc(C(=O)Nc2ccc(S(=O)(=O)O)c3cc(S(=O)(=O)O)cc(S(=O)(=O)O)c23)cc1NC(=O)c1cccc(NC(=O)Nc2cccc(C(=O)Nc3cc(C(=O)Nc4ccc(S(=O)(=O)O)c5cc(S(=O)(=O)O)cc(S(=O)(=O)O)c45)ccc3C)c2)c1`: the activity change, negative = inhibition was 10.9%.

Take `CC(=O)Nc1c(I)c(NC(C)=O)c(I)c(C(=O)O)c1I`: the activity change, negative = inhibition worked out at 20.6%.

With `CC(=O)NC1(C)CCCN(Cc2cccc(-c3ccc4c(ccn4C)c3)c2)C1` (stereo not given), the Potency is active: 35.5 µM.

On to `Clc1cccc(Cc2c(-c3ccco3)nc3c4ccccc4ccn23)c1`, for which the Potency was active: 10 µM.

Take `CC(C)c1ccc(NC(=O)CSc2nc3ccccc3nc2N2CCCC2)cc1`: the Potency is active: 6.31 µM.

For the compound `COc1ccc(Br)cc1C1CC(=O)N2CN(C)CSC2=C1C#N` (stereo not given), the Potency is active: 28.2 µM.
